# Measurements from US20250356957A1, “EMULATOR OF SUBCUTANEOUS ABSORPTION AND RELEASE” (UNIVERSITY OF KANSAS, priority 2022, published 2025).
# At least one read-out could not be matched to a standard name with certainty.
# Test: ESCAR drug binding/adsorption study (drug recovery)
# Assay type: physicochemical
# Conditions: after 24-hr at ambient temperature in ESCAR acceptor chamber
row,SMILES,recovery (%)
1,"CC(=O)Nc1ccc(O)cc1 [acetaminophen, Acetaminophen]",99.6±0.2
2,COC1=CC(=O)C[C@@H](C)[C@]12Oc1c(Cl)c(OC)cc(OC)c1C2=O [griseofulvin],95.5±1.7
